Experimental findings from article PMC8232280 are described below.

By UniProt entry, the sequences of proteins in these tests, tags left out.
UniProt P19338: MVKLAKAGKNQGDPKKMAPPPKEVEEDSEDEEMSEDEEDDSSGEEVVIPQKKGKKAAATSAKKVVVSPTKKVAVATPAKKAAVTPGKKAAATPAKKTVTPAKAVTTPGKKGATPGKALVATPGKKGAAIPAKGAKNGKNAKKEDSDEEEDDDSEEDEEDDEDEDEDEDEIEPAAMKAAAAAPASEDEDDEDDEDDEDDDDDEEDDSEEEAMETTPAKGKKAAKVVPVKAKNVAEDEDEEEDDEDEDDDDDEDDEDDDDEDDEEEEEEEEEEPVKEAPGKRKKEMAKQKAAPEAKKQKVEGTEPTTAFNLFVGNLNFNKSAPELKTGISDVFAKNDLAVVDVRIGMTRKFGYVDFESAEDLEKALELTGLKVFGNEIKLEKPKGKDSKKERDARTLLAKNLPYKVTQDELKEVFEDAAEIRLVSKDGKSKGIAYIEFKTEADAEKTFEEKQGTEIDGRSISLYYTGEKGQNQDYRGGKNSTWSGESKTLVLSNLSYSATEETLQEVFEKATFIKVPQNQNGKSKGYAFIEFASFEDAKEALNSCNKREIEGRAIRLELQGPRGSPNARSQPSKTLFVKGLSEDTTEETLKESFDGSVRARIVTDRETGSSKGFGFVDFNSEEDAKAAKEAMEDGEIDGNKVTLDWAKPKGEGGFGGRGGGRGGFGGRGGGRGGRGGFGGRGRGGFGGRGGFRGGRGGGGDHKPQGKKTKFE
UniProt P35222: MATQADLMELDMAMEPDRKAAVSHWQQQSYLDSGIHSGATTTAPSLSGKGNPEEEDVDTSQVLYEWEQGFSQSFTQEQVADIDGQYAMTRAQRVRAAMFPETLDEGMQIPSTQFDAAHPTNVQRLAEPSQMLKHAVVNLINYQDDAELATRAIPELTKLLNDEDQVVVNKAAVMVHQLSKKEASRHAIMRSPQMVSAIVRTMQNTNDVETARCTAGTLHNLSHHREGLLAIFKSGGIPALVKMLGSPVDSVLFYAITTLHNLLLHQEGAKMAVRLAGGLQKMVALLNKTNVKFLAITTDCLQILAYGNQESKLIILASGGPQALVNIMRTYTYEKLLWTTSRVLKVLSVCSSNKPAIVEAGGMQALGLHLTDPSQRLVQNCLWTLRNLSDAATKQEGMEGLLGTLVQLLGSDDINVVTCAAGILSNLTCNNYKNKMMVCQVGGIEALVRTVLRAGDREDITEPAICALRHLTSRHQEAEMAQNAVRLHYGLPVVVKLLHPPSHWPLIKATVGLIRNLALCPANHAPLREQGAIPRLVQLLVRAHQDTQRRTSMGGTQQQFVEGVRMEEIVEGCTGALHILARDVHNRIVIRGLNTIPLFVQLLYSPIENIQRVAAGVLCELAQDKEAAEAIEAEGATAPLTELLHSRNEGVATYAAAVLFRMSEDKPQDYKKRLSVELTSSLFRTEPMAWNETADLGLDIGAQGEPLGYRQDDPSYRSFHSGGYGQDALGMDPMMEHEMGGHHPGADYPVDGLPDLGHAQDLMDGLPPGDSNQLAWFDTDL

These are yes or no findings as the source states them, for the method shown. Binding seen in cells or lysates may run through a third protein. Some entries that bind do so weakly or less than the wild type.

For this assay, the target named is Nucleolin (human (endogenous in MIA PaCa-2 and Panc-1)) (UniProt P19338). Description: co-IP; nucleolin immunoprecipitated (5 µg rabbit anti-nucleolin, Abcam ab22758; control rabbit IgG) from 1 mg of the extranuclear fraction of MIA PaCa-2 and Panc-1 cells stimulated or not with Wnt3a-CM for 3 h; 1 h at 4 °C; protein G sepharose; Western blotting with anti-β-catenin.

For the substance β-catenin (from UniProt P35222 1-781), the binding result is “binds”.
